These results are taken from publication PMC3499365.

Amino acid sequences for entries named in this document (tags omitted).
UniProt Q9NQT5: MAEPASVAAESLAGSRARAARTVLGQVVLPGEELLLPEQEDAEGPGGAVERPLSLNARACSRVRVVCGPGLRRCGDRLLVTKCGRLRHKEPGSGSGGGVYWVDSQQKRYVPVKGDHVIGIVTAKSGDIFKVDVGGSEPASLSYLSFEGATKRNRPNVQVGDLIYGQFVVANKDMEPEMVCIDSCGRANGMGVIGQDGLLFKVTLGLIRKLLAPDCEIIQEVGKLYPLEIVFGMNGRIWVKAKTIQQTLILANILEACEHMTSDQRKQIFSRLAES

No constants are given. Whether binding was seen depends on the method and setting. In cells and extracts the contact can be indirect. Some results given as binding are weak or reduced against the parent protein; the word gives no strength. Where a sequence is shown, tags or fusion partners need not be part of it.

Assay [1] concerns the target T1, GFP-PABPN1 (poly(A)-binding protein nuclear 1) (human) (UniProt Q86U42).
T1 sequence: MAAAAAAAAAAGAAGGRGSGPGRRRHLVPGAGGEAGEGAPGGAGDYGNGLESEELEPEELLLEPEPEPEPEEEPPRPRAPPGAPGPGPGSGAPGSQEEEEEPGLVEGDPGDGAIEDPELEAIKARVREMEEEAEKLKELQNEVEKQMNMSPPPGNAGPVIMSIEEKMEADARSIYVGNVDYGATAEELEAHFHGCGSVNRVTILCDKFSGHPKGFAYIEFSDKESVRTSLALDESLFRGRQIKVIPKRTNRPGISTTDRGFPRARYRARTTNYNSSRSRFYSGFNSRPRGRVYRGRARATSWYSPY
Description: co-IP; GFP immunoprecipitates from extracts of HEK293T cells that stably express GFP or GFP-PABPN1 and were transfected with Flag-hRRP40; lysis in buffer B (50 mM Tris-HCl pH 7.5, 150 mM NaCl, 1% Triton-X-100, 10% glycerol, 2 mM MgCl2, 1 mM DTT), beads washed four times in lysis buffer; Western blot with anti-Flag and anti-GFP. Background: Immunoblotting shows a protein as a band on a membrane.

Assay [2] deals with T2, endogenous hRRP6 (human (endogenous in HEK293T)) (UniProt Q01780).
T2 sequence: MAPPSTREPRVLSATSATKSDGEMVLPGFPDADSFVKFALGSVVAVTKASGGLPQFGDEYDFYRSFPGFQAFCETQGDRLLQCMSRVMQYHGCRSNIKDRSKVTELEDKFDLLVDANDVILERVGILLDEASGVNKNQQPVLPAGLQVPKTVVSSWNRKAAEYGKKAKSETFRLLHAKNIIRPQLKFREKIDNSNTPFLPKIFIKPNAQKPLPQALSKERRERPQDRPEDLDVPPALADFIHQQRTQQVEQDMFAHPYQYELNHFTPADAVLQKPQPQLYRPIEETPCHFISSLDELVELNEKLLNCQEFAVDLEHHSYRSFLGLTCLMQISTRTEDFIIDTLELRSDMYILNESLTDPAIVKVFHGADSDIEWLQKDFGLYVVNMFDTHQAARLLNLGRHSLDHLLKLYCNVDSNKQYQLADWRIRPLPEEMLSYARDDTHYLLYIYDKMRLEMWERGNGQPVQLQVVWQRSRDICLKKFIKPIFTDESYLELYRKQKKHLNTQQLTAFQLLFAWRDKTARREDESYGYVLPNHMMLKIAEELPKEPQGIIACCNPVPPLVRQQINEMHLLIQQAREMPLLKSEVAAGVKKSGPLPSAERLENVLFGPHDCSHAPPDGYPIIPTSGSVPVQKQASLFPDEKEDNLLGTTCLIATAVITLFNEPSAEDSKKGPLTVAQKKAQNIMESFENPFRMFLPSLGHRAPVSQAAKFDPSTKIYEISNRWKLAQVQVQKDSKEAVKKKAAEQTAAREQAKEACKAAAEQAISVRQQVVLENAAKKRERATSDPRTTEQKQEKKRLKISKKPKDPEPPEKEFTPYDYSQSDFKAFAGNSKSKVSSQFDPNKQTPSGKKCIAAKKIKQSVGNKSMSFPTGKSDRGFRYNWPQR
Description: co-IP; hRRP6 immunoprecipitates (affinity-purified antibody to endogenous hRRP6) from extracts of HEK293T cells that stably express GFP or GFP-PABPN1; lysis in buffer B (50 mM Tris-HCl pH 7.5, 150 mM NaCl, 1% Triton-X-100, 10% glycerol, 2 mM MgCl2, 1 mM DTT), beads washed four times in lysis buffer; Western blot with anti-hRRP6 and anti-GFP.

In the case of “Flag-tagged hRRP40 (from UniProt Q9NQT5 1-275)”, the binding result in assay [1] was “binds”.

B1: GFP-PABPN1 (poly(A)-binding protein nuclear 1) (protein, UniProt Q86U42 1-306)
chain: MAAAAAAAAAAGAAGGRGSGPGRRRHLVPGAGGEAGEGAPGGAGDYGNGLESEELEPEELLLEPEPEPEPEEEPPRPRAPPGAPGPGPGSGAPGSQEEEEEPGLVEGDPGDGAIEDPELEAIKARVREMEEEAEKLKELQNEVEKQMNMSPPPGNAGPVIMSIEEKMEADARSIYVGNVDYGATAEELEAHFHGCGSVNRVTILCDKFSGHPKGFAYIEFSDKESVRTSLALDESLFRGRQIKVIPKRTNRPGISTTDRGFPRARYRARTTNYNSSRSRFYSGFNSRPRGRVYRGRARATSWYSPY
Turning to B1, the binding entry in assay [2] is listed as “binds”.
